Test results reported in article PMC3996523.
Results are given in words; binding and its absence hold for the method and conditions named. In cells and extracts the contact can be indirect. Some binding calls cover weakened binding; strength is not graded here.

The chains behind the UniProt entries cited, without tags or fusion partners. Residues count along the entry.
UniProt O95831, residues 102-613: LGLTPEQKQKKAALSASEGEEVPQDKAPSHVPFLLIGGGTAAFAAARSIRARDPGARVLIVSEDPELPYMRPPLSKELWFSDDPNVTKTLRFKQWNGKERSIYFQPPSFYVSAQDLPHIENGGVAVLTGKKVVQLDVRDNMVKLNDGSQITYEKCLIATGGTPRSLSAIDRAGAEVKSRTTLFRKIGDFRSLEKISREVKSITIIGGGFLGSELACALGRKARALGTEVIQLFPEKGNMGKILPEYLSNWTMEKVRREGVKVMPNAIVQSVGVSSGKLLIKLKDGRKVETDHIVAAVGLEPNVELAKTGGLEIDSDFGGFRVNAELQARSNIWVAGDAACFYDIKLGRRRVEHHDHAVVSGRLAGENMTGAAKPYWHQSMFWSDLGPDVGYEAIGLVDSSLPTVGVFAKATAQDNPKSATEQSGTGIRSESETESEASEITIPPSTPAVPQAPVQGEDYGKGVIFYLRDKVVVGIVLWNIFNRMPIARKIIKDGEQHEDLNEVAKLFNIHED
UniProt P08670: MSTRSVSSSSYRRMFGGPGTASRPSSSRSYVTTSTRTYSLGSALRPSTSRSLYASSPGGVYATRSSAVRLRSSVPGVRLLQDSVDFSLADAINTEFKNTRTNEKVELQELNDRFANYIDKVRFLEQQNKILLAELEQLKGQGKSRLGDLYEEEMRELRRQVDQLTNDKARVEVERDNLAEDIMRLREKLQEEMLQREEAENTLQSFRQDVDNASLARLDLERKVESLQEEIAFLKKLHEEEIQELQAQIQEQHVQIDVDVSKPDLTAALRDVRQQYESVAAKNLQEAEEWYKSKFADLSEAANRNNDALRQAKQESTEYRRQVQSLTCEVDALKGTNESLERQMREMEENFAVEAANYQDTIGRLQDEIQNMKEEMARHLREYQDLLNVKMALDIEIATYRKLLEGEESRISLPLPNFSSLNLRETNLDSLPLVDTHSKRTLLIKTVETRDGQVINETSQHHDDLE

Tests used:
[1] = biological target: T1, peptidylarginine deiminase 3 (PAD3) (human (endogenous in hNSCs)) (UniProt Q9ULW8); test: co-IP; hNSC protein extract of control cells (no thapsigargin) precipitated with anti-PAD3 antibody (5 ug), Catch and Release kit; eluate analysed by Western blot
T1 sequence: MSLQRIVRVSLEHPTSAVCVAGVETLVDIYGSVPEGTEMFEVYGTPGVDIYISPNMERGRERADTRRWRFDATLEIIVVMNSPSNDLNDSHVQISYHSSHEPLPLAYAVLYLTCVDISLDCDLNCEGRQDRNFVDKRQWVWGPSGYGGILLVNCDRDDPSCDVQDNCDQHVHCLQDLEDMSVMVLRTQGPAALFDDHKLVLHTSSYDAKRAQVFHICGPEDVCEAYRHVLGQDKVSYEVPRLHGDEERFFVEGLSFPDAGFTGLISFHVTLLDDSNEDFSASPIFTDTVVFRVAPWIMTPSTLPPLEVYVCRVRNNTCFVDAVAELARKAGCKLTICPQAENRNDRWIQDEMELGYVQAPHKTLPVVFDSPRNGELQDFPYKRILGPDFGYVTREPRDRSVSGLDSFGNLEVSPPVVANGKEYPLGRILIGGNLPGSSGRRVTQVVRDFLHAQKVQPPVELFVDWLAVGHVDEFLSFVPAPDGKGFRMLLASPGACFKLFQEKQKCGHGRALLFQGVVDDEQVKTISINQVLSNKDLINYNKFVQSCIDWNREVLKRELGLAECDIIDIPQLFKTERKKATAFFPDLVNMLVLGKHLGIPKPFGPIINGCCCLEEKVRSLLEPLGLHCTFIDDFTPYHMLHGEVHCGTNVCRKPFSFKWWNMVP

[2] = biological target: T1, peptidylarginine deiminase 3 (PAD3) (human (endogenous in hNSCs)); test: co-IP; hNSC protein extract (300-700 ug) of thapsigargin-treated cells precipitated with anti-PAD3 antibody (5 ug), Catch and Release kit; eluate analysed by Western blot
[3] = biological target: apoptosis inducing factor (AIF) (human (endogenous in hNSCs)) (UniProt O95831); test: co-IP; hNSC protein extract precipitated with anti-AIF antibody (2 ug), Catch and Release kit; eluate analysed by Western blot; treatment of the cells not told

Substance	binding [1]	binding [2]	binding [3]
apoptosis inducing factor (AIF) (from UniProt O95831 102-613)	no binding (condition: cells without thapsigargin)	binds	–
vimentin (from UniProt P08670 1-466)	no binding (condition: cells without thapsigargin)	binds	binds
